Reference: the supplement of paper PMC12819154, “High-throughput peptide-centric local stability assay extends protein–ligand identification to membrane proteins, tissues and bacteria” (Nature Structural & Molecular Biology, 2025)
The other results are listed elsewhere or left out. Small differences around the control level are noise.

By UniProt entry, the sequences of proteins in these tests, tags left out. Where a name states a change or a piece, a line headed by the entry shows the natural chain unless it says otherwise.
UniProt Q3TIX9: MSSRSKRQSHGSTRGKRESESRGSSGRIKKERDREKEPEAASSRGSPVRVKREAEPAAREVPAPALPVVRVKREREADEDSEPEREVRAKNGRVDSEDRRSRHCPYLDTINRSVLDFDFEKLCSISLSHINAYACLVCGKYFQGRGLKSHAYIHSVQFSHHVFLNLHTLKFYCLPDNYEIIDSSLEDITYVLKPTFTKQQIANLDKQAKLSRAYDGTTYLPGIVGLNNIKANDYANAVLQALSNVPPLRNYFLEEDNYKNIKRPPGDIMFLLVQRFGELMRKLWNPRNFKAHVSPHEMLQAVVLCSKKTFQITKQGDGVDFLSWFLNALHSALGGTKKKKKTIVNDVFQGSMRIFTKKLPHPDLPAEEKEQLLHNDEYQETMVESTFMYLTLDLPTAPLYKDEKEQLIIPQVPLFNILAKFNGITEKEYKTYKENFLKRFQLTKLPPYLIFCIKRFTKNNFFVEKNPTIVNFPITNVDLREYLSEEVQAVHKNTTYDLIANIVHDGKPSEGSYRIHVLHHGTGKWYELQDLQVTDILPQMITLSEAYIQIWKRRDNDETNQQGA
UniProt Q3UD01: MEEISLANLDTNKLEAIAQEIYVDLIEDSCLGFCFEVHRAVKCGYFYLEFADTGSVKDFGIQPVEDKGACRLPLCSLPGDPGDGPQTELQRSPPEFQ
UniProt Q05920: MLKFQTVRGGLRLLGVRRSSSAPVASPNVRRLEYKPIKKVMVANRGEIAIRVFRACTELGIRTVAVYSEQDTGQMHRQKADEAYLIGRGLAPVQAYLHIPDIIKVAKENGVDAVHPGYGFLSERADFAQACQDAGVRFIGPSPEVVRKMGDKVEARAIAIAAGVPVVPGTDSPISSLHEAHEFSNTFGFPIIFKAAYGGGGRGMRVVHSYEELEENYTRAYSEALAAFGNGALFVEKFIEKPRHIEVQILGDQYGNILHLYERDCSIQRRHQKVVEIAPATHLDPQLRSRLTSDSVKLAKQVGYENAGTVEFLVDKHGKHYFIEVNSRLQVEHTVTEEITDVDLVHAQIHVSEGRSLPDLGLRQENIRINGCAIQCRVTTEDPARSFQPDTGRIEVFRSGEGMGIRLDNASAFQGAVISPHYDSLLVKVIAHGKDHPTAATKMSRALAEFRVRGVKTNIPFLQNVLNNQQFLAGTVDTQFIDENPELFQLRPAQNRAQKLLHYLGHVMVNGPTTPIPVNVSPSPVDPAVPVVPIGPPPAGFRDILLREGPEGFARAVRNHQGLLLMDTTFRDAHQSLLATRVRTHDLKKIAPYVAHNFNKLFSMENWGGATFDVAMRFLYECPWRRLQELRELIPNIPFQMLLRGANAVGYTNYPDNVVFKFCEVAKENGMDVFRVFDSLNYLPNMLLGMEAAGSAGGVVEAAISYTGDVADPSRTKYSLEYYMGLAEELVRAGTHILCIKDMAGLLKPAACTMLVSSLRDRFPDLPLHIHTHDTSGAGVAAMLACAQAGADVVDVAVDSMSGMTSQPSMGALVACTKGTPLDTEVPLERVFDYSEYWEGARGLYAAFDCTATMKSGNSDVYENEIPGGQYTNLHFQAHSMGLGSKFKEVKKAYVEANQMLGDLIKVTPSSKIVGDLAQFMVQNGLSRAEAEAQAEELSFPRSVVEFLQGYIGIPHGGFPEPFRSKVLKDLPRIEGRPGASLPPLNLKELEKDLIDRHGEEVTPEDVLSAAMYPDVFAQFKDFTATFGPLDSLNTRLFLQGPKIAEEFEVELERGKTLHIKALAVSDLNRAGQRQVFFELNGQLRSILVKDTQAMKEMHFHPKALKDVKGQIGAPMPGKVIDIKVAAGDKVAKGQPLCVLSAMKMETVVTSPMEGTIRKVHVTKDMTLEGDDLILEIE
UniProt Q06890, whole entry: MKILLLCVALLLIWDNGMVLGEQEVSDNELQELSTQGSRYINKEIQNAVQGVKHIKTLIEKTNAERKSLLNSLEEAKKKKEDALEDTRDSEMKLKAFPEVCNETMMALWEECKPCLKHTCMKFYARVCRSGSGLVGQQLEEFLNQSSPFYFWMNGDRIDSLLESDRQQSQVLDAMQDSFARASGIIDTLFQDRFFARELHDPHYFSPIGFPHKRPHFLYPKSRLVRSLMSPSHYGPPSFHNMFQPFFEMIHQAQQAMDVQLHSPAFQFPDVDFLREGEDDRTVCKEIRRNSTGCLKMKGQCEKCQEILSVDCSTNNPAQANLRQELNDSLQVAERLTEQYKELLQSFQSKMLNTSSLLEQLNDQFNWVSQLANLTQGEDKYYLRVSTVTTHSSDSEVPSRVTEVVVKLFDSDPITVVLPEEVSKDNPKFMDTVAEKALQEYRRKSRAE
UniProt Q02053: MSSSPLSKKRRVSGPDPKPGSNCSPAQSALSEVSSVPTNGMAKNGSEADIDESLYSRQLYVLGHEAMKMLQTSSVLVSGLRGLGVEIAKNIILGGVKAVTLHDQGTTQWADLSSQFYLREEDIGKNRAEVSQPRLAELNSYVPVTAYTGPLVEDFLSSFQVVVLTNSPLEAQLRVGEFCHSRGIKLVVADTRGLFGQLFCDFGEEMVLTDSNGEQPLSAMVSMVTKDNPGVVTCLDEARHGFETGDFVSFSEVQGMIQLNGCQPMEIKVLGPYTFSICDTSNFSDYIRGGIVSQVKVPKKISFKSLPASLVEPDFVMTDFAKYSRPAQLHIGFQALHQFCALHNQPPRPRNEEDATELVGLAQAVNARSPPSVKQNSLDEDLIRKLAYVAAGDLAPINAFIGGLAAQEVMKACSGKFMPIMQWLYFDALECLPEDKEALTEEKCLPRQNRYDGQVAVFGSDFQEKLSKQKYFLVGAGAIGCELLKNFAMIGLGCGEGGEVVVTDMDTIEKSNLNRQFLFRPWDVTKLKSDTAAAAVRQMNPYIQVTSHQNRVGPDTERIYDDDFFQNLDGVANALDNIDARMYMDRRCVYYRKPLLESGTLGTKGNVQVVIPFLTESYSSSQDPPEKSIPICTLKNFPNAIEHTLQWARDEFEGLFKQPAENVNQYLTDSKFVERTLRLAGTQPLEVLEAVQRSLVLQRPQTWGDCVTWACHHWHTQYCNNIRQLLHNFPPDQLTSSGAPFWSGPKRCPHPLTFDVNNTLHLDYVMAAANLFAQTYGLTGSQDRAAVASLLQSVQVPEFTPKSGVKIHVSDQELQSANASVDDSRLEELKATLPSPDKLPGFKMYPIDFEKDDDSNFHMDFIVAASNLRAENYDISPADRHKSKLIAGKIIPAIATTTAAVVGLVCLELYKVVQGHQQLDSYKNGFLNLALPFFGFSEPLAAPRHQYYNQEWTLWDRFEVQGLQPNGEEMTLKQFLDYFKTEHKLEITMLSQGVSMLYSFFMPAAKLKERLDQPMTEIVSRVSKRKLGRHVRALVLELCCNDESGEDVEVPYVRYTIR
UniProt Q3UDR8: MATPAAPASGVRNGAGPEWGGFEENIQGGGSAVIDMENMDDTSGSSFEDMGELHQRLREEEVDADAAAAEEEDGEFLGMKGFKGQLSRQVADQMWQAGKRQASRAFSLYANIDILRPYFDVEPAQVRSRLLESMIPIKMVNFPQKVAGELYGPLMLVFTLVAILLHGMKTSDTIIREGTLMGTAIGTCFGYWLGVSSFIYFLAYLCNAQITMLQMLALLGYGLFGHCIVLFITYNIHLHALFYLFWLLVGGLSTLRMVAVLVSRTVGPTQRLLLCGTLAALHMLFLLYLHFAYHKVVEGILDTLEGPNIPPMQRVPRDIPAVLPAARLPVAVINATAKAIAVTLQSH
UniProt P98195: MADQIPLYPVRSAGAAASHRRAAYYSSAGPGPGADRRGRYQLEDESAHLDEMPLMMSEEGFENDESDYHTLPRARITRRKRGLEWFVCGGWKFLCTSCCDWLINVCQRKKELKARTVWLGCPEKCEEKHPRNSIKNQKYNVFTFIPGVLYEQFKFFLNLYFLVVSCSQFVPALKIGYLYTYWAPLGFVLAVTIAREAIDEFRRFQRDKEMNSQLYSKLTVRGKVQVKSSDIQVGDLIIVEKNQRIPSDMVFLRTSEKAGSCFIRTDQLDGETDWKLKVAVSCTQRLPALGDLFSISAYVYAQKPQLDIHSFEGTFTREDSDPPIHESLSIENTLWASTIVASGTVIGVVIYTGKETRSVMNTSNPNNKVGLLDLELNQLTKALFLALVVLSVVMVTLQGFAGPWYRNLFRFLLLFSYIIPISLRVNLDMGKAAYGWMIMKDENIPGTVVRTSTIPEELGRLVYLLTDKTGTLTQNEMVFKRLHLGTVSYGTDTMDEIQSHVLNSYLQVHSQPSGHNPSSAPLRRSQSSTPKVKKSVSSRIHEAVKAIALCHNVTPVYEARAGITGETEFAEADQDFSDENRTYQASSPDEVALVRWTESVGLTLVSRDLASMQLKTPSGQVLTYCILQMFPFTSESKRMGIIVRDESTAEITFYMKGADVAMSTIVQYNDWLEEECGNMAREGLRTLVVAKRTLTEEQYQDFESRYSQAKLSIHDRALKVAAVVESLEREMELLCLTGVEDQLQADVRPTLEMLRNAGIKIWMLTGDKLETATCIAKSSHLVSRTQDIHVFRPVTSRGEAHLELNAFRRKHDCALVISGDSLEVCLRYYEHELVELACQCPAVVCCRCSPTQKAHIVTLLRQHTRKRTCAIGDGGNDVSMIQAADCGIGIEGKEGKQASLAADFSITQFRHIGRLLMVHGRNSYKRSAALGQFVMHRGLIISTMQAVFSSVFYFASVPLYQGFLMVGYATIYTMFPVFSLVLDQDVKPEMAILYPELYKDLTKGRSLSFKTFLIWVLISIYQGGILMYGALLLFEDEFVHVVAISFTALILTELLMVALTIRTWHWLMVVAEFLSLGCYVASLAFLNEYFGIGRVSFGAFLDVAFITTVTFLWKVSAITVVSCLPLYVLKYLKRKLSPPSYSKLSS
UniProt Q4VBD2: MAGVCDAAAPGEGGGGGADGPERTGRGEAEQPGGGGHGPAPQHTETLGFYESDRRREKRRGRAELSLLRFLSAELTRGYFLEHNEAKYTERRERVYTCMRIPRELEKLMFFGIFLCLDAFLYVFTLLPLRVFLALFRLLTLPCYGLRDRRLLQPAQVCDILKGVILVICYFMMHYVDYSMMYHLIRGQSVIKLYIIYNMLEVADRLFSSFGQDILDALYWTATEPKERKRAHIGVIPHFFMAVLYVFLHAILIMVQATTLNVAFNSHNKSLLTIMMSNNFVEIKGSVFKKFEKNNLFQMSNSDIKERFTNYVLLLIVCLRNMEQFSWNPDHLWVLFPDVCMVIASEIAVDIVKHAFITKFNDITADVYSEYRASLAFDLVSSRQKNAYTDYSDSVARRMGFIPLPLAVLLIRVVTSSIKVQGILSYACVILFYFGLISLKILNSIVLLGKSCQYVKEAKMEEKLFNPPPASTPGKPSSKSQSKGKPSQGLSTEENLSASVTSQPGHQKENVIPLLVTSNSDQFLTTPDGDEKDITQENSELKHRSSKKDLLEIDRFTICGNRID
UniProt Q3THK3, whole entry: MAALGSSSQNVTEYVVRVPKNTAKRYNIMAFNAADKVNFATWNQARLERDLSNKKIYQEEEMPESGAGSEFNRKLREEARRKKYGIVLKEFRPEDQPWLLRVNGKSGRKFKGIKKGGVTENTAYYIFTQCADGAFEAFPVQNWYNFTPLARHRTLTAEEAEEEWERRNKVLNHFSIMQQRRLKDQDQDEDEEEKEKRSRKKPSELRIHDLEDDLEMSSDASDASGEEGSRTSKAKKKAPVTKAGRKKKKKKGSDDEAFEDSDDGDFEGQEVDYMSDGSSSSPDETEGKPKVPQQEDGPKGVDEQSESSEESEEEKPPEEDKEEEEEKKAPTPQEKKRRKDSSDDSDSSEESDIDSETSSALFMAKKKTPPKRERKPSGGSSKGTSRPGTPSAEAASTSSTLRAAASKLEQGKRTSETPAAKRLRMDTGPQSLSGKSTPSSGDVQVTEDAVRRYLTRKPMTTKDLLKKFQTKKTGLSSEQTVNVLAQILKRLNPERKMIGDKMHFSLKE
UniProt Q571F8: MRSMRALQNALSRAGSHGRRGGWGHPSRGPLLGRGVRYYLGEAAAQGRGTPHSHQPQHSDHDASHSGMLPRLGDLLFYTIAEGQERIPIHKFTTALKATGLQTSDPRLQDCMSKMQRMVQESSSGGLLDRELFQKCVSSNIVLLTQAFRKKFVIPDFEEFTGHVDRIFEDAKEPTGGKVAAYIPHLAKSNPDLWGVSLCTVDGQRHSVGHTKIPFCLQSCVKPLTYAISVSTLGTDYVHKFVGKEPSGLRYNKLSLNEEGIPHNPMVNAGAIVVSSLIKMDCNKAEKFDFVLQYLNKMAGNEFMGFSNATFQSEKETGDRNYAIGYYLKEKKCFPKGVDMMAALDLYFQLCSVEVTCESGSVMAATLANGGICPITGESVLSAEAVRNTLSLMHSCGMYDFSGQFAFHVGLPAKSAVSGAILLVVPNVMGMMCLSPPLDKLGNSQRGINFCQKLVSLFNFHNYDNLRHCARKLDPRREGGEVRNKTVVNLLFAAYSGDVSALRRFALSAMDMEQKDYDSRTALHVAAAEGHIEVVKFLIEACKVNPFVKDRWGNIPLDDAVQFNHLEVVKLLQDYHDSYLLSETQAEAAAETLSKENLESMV

Compound: CN[C@@H]1C[C@H]2O[C@@](C)([C@@H]1OC)n1c3ccccc3c3c4c(c5c6ccccc6n2c5c31)C(=O)NC4 [staurosporine]
Assay: log2 fold change of pooled soluble protein (PISA), ligand vs vehicle (log2 ratio); higher = more thermally stabilized
Conditions: ligand concentration: 20 uM; assay format: PISA pool 52.9/55.5/58.6 C

Target | log2 fold change of pooled soluble protein
UniProt Q3U1J4 | -0.029
UniProt Q2TBE6 | 0.489
UniProt Q05D44 | 0.0577
UniProt Q3TDQ1 | 0.149
UniProt Q3TC72 | -0.507
UniProt Q08288 | 0.00233
UniProt Q3TIX9 | -0.1
UniProt Q3UD01 | -0.114
UniProt Q5ND29 | -0.184
UniProt Q05920 | -0.0874
UniProt Q06890 | -0.0554
UniProt Q3UBZ5 | 0.0501
UniProt Q3TCH7 | 0.282
UniProt Q04899 | -0.256
UniProt Q3UQ84 | -0.033
UniProt P97792 | 0.0442
UniProt Q02053 | -0.0338
UniProt Q3UC65 | 0.172
UniProt Q3TW96 | 0.0514

Target | log2 fold change of pooled soluble protein
UniProt Q01705 | 0.0834
UniProt Q0GNC1 | 0.0478
UniProt Q3U9G9 | -0.177
UniProt Q3UDR8 | -0.113
UniProt Q5EBG8 | 0.00861
UniProt Q3UH68 | -0.218
UniProt Q3ULD5 | -0.14
UniProt Q3V1L4 | -0.00306
UniProt Q4QQM4 | -0.189
UniProt Q05512 | 0.0377
UniProt Q3UY34 | 0.105
UniProt P98195 | -0.00448
UniProt Q5RJF7 | 0.0542
UniProt Q3TLD5 | 0.124
UniProt Q3TH73 | 0.0241
UniProt Q4VBD2 | 0.00374
UniProt Q3THK3 | -9.4e-05
UniProt Q571F8 | -0.0787

Retrieved one by one from above:
Target | log2 fold change of pooled soluble protein
UniProt Q5EBG8 | 0.00861
UniProt Q3UDR8 | -0.113
